In patent publication US8501715B2, “Oxidized lipids and uses thereof in the treatment of inflammatory diseases and disorders” (Vascular Biogenics Ltd., priority 2003, dated 2013):

Assays:
[1] = Plasma/serum cholesterol and triglyceride levels in Apo-E KO mice; assay type: in vivo, mouse
[2] = Body weight of Apo-E KO mice; assay type: in vivo, mouse
[3] = tested on: monocytes, dendritic, T and B cell lines; assay: 3H-CI-201 uptake in immune cell lines; assay type: cell-based; conditions: radioactive levels only at the 24 hours time point compared to control cells
[4] = i.p. immunization x4 every 2 weeks (ALLE 150 μg/mouse coupled to PPD; PPD alone), End
[5] = i.p. immunization x4 every 2 weeks (ALLE 150 μg/mouse coupled to PPD; PPD alone), Time 0
[6] = nasal 10 μg/mouse L-ALLE every other day for 3 days, End
[7] = nasal 10 μg/mouse L-ALLE every other day for 3 days, Time 0
[8] = oral 10 μg/mouse L-ALLE+D-ALLE every other day for 5 days, End
[9] = oral 10 μg/mouse L-ALLE+D-ALLE every other day for 5 days, Time 0
[10] = oral 1 mg/mouse L-ALLE every other day for 5 days, End
[11] = oral 1 mg/mouse L-ALLE every other day for 5 days, Time 0
[12] = oral 1 mg/mouse L-ALLE+D-ALLE every other day for 5 days, End
[13] = oral 1 mg/mouse L-ALLE+D-ALLE every other day for 5 days, Time 0
[14] = oral 0.1 μg/dose, 3 monthly sets of 5 administrations, END (12 weeks)
[15] = oral 0.1 μg/dose, 3 monthly sets of 5 administrations, T = 0
[16] = oral 1 μg/dose, 3 monthly sets of 5 administrations, END (12 weeks)
[17] = oral 1 μg/dose, 3 monthly sets of 5 administrations, T = 0
[18] = oral 10 μg/dose, 3 monthly sets of 5 administrations, 26-28 weeks old mice, T = 0
[19] = oral 10 μg/dose, 3 monthly sets of 5 administrations, END (12 weeks)
[20] = oral 0.2 mg/mouse every other day for 5 days, End
[21] = oral 0.2 mg/mouse every other day for 5 days, time point 0
[22] = oral 1 mg/mouse every other day for 5 days, End
[23] = oral 1 mg/mouse every other day for 5 days, time point 0
[24] = oral 5 mg/mouse every other day for 5 days, End
[25] = oral 5 mg/mouse every other day for 5 days, time point 0
[26] = oral 1 mg/mouse, 5 feedings every other day every 4 weeks over 12 weeks, 24.5 week old mice, End
[27] = oral 1 mg/mouse, 5 feedings every other day every 4 weeks over 12 weeks, 24.5 week old mice, time point 0

Compound: 2,5′-Aldehyde Lecithin Ether [ALLE]
- Chol (plasma cholesterol) [1, 4]: 299 ± 18 mg/dL
- TG (plasma triglycerides) [1, 4]: 57 ± 3 mg/dL
- Chol (plasma cholesterol) [1, 5]: 435 ± 47 mg/dL
- TG (plasma triglycerides) [1, 5]: 118 ± 9 mg/dL
- Chol (plasma cholesterol) [1, 6]: 328 ± 18 mg/dL
- TG (plasma triglycerides) [1, 6]: 74 ± 6 mg/dL
- Chol (plasma cholesterol) [1, 7]: 353 ± 31 mg/dL
- TG (plasma triglycerides) [1, 7]: 143 mg/dL
- Chol (serum cholesterol) [1, 8]: 321 ± 15 mg/dL
- TG (serum triglycerides) [1, 8]: 93 ± 6 mg/dL
- Chol (serum cholesterol) [1, 9]: 378 ± 31 mg/dL
- TG (serum triglycerides) [1, 9]: 90 mg/dL
- Chol (plasma cholesterol) [1, 10]: 418 ± 43 mg/dL
- TG (plasma triglycerides) [1, 10]: 82 ± 7 mg/dL
- Chol (plasma cholesterol) [1, 11]: 362 ± 27 mg/dL
- TG (plasma triglycerides) [1, 11]: 144 mg/dL
- Chol (serum cholesterol) [1, 12]: 249 ± 24 mg/dL
- TG (serum triglycerides) [1, 12]: 78 ± 8 mg/dL
- Chol (serum cholesterol) [1, 13]: 379 ± 23 mg/dL
- TG (serum triglycerides) [1, 13]: 98 mg/dL
- Weight [2, 4]: 20.5 ± 0.5 grams
- Weight ([2]; i.p. immunization x4 every 2 weeks (ALLE 150 μg/mouse coupled to PPD; PPD alone), Time 0 (prior to immunization)): 17.3 ± 0.5 grams
- Weight [2, 6]: 24.2 ± 0.2 grams
- Weight [2, 7]: 21.1 ± 0.7 grams
- Weight [2, 8]: 24.1 ± 0.8 grams
- Weight ([2]; oral 10 μg/mouse L-ALLE+D-ALLE every other day for 5 days, Time 0 (prior to feeding)): 21.1 ± 0.8 grams
- Weight [2, 10]: 23.3 ± 1.1 grams
- Weight ([2]; oral 1 mg/mouse L-ALLE every other day for 5 days, Time 0 (prior to feeding)): 21.1 ± 0.8 grams
- Weight [2, 12]: 27.4 ± 0.5 grams
- Weight ([2]; oral 1 mg/mouse L-ALLE+D-ALLE every other day for 5 days, Time 0 (prior to feeding)): 21.5 ± 0.8 grams

Compound: CCCCCCCCCCCCCCCCOC[C@H](COP(=O)([O-])OCC[N+](C)(C)C)OCCCCC(=O)O [CI-201, 1-Hexadecyl-2-(5′-Carboxy-butyl)-sn-glycero-3-phosphocholine]
- radiolabeled CI-201 incorporation in T cells [3]: mild increase
- Cholesterol (plasma) [1, 14]: 406 ± 39 mg/dL
- Triglyceride (plasma) [1, 14]: 107 ± 13 mg/dL
- Cholesterol (plasma) [1, 15]: 313 ± 14 mg/dL
- Triglyceride (plasma) [1, 15]: 87 ± 6 mg/dL
- Cholesterol (plasma) [1, 16]: 382 ± 24 mg/dL
- Triglyceride (plasma) [1, 16]: 96 ± 8 mg/dL
- Cholesterol (plasma) [1, 17]: 323 ± 20 mg/dL
- Triglyceride (plasma) [1, 17]: 87 ± 4 mg/dL
- Cholesterol (plasma) [1, 18]: 321 ± 23 mg/dL
- Triglyceride (plasma) [1, 18]: 88 ± 4 mg/dL
- Cholesterol (plasma) [1, 19]: 344 ± 25 mg/dL
- Triglyceride (plasma) [1, 19]: 76 ± 4 mg/dL
- Weight ([2]; oral 0.1 μg/dose, 3 monthly sets of 5 administrations, 26-28 weeks old mice, T = 0): 26.6 ± 0.4 g
- Weight [2, 14]: 28.8 ± 0.7 g
- Weight ([2]; oral 1 μg/dose, 3 monthly sets of 5 administrations, 26-28 weeks old mice, T = 0): 26.4 ± 0.4 g
- Weight [2, 16]: 29.0 ± 0.4 g
- Weight ([2]; oral 10 μg/dose, 3 monthly sets of 5 administrations every other day, 26-28 weeks old mice, T = 0): 26.6 ± 0.5 g
- Weight [2, 19]: 29.6 ± 0.5 g

Compound: C=CCCCCO[C@H](COCCCCCCCCCCCCCCCC)COP(=O)([O-])OCC[N+](C)(C)C [Compound V, 1-Hexadecyl-2-(5′-hexenyl)-sn-glycero-3-phosphocholine]
- Cholesterol [1, 14]: 292 ± 16 mg/DI
- Triglyceride [1, 14]: 81 ± 3 mg/DI
- Cholesterol [1, 15]: 401 ± 27 mg/DI
- Triglyceride [1, 15]: 128 ± 8 mg/DI
- Cholesterol (serum) [1, 20]: 409 ± 8 mg/dL
- Triglyceride (serum) ([1]; oral 0.2 mg/mouse every other day for 5 days, End, P< 0.001 versus PBS): 102 ± 5 mg/dL
- Cholesterol (serum) [1, 21]: 214 ± 21 mg/dL
- Triglyceride (serum) [1, 21]: 50 ± 7 mg/dL
- Cholesterol (serum) [1, 22]: 398 ± 23 mg/dL
- Triglyceride (serum) ([1]; oral 1 mg/mouse every other day for 5 days, End, P< 0.05 versus PBS): 91 ± 4 mg/dL
- Cholesterol (serum) [1, 23]: 198 ± 23 mg/dL
- Triglyceride (serum) [1, 23]: 52 ± 5 mg/dL
- Cholesterol (serum) [1, 24]: 431 ± 23 mg/dL
- Triglyceride (serum) [1, 24]: 80 ± 8 mg/dL
- Cholesterol (serum) [1, 25]: 210 ± 18 mg/dL
- Triglyceride (serum) [1, 25]: 52 ± 4 mg/dL
- Weight ([2]; oral 0.1 μg/dose, 3 monthly sets of 5 administrations, 23-26 weeks old mice, T = 0): 26.1 ± 0.7 g
- Weight [2, 14]: 28.1 ± 0.5 g
- Weight [2, 20]: 20.1 ± 0.3 grams
- Weight ([2]; oral 0.2 mg/mouse every other day for 5 days, female 8-10 week old mice, time point 0): 18.5 ± 0.3 grams
- Weight [2, 22]: 19.8 ± 0.2 grams
- Weight ([2]; oral 1 mg/mouse every other day for 5 days, female 8-10 week old mice, time point 0): 18.3 ± 0.3 grams
- Weight ([2]; oral 5 mg/mouse every other day for 5 days, End (8 weeks after last administration)): 19.8 ± 0.3 grams
- Weight ([2]; oral 5 mg/mouse every other day for 5 days, female 8-10 week old mice, time point 0): 18.0 ± 0.3 grams

Compound: CCCCCCCCCCCCCCCCOC[C@H](COP(=O)([O-])OCC[N+](C)(C)C)OCCCCC=O [D-ALLE, 1-hexadecyl-2-(5′-oxo-pentanyl)-sn-glycero-3-phosphocholine]
- Cholesterol (plasma) [1, 26]: 394 ± 15 mg/dL
- Triglyceride (plasma) [1, 26]: 94 ± 4 mg/dL
- Cholesterol (plasma) [1, 27]: 409 ± 28 mg/dL
- Triglyceride (plasma) [1, 27]: 63 ± 4 mg/dL
- Weight [2, 26]: 30.4 ± 0.8 grams
- Weight [2, 27]: 29.8 ± 0.7 grams

Compound: CCCCCCCCCCCCCCCCOC[C@@H](COP(=O)([O-])OCC[N+](C)(C)C)OCCCCC=O [L-ALLE, 3-hexadecyl-2-(5′-oxo-pentanyl)-sn-glycero-1-phosphocholine]
- Cholesterol (plasma) [1, 26]: 391 ± 18 mg/dL
- Triglyceride (plasma) [1, 26]: 83 ± 4 mg/dL
- Cholesterol (plasma) [1, 27]: 413 ± 23 mg/dL
- Triglyceride (plasma) [1, 27]: 63 ± 8 mg/dL
- Weight [2, 26]: 29.7 ± 0.5 grams
- Weight [2, 27]: 29 ± 0.6 grams
